Test results as given in doi:10.1101/2022.02.05.479199.
Changes are numbered by the printed parent chain. Results are given in words; binding and its absence hold for the method and conditions named. Some binding calls cover weakened binding; strength is not graded here.

B1: Regulator of Ty1 Transposition 105 (Rtt105) (protein, UniProt P40063 1-208)
chain: MYSNHNLNSDDCCFDWNEEKAAELQRTGVSFDRSLTPQSLRTSTRRLSEENKQQSGTMHIDTSPSVVSDIISSRRDRSQDFFGPHSSSPIAPSERQRADQRSRLESMRLTRRRDKMTKVRGGLEKMEEMIMQGEHLREMQRLKQEAQKNALPSDMAEYMEWQNNEDLEDDELLAFIEKQETYKNELEHFLNNANKNVYENNSYPNSHT
B2: Rtt105^Cy5 (protein, UniProt P40063 1-208)
chain: B1 chain with C13S
modifications: Cy5 (maleimide) on Cys-12

How the values were obtained:
[1] = molecular target: T1, Replication protein A (Saccharomyces cerevisiae RPA) (S. cerevisiae) (UniProt P22336+P26754+P26755); assay: SEC
[2] = molecular target: T1, Replication protein A (Saccharomyces cerevisiae RPA) (S. cerevisiae); assay: HDX-MS
[3] = molecular target: T1, Replication protein A (Saccharomyces cerevisiae RPA) (S. cerevisiae); assay: cross-linking
[4] = molecular target: T1, Replication protein A (Saccharomyces cerevisiae RPA) (S. cerevisiae); assay: SEC; remark: listed apart in the source
[5] = molecular target: T1, Replication protein A (Saccharomyces cerevisiae RPA) (S. cerevisiae); assay: SEC; remark: listed apart in the source
[6] = molecular target: T1, Replication protein A (Saccharomyces cerevisiae RPA) (S. cerevisiae); assay: AUC

Binder	binding [1]	binding [2]	binding [3]	binding [4]	binding [5]	binding [6]
B1	binds	binds	binds	binds	binds	–
B2	–	–	–	–	–	binds weakly
